We go through 18 molecules from PubChem BioAssay (NCATS).

Test [1] in a line: NCATS anti-infectives library activity on the primary C. elegans qHTS viability assay (AID 1745855). The conditions noted are these: C. elegans worm area imaging, day 7, day 3. An outline of the steps: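 GFP read-out by 488 nm laser cytometry at day 0, 3 and 7, gated on object perimeter, area and peak intensity, scored viability of PE254-GFP-FLuc worms exposed to compound in S medium with bacterial capsules at 21 °C.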
(In general: qHTS replaces the single test concentration by a dilution series.)

Test [2] can be described thus: qHTS drug screen for cell cycle checkpoint inhibitors in PARPi-resistant BRCA-mutant ovarian cancer cell lines. (AID 1963452). The note with it: PEO1/OlaR viability, CellTiter-Glo luminescence, 96 h. The gist of the method: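 PEO1, PEO4 and PEO1/OlaR ovarian cancer cells, 600 per well, exposed 96 h at 37C to a dilution series. Viability read by CellTiter-Glo luminescence, normalized to DMSO and empty wells; activity summarized as Z-AUC.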

Test [3] can be described thus: qHTS for identification of novel therapeutic agents for treatment of microphthalmiaassociated transcription factor (MiT) renal cell carcinoma (RCC) (AID 1963991). The conditions noted are these: CellTiter-Glo, 48 h; for z-score: stronger effect = lower value. The gist of the method:
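Three TFE3-fusion RCC cell lines (UOK109, UOK124, UOK145), 500 cells/well, were exposed to the 1912-compound MIPE 4.0 library for 48 hours at 37 C. Viability was read by CellTiter-Glo luminescence, normalised to DMSO (100%) and empty wells (0%), with 11-concentration curve fits.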

The nature of test [4]: qHTS assay for small molecule antagonists of peroxisome proliferator-activated receptor delta signaling (AID 588535).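 Note: cells co-treated with a PPAR-delta agonist as stimulator during compound exposure.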 The note with it: HEK293T PPARd-UAS-bla, beta-lactamase FRET ratio, 18 h; 460 nm channel. An outline of the steps:
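Fluorescence from CCF4-loaded GeneBLAzer PPAR-delta-UAS-bla HEK293T cells (2 hrs RT loading) quantified reporter inhibition after an 18 hr, 37 C compound exposure across a titration.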

A short description of test [5]: S16 Schwann cell PMP22 intronic element beta-lactamase assay (AID 624044). The note with it: S16 rat Schwann cells, PMP22 element beta-lactamase FRET, 24 h. An outline of the steps:
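Beta-lactamase reporter under a PMP22 intronic regulatory element in stable S16 rat Schwann cells; 24 h compound exposure. 460 nm blue signal normalized between DMSO (0%) and potassium clavulanate, with 535 nm FRET tracking viability; curves classed by r2 and response.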

The mark [6] stands for this setting: measured here: PEO1 parental viability.
Setting [7] is: TFE3-RCC UOK109 viability, measured here: UOK109 Z-AUC.
The mark [8] stands for this setting: TFE3-RCC viability, measured here: UOK124 Z-AUC.
The mark [9] stands for this setting: TFE3-RCC viability, measured here: UOK124 cell viability.
Where [10] appears, read: TFE3-RCC viability, measured here: UOK145 Z-AUC.
The mark [11] stands for this setting: TFE3-RCC viability, measured here: UOK145 cell viability.

Some of the results follow. Shown are side measurements of this screen, not its main read-out; they come without a call. For part of these data: The list favours compounds with an active or inconclusive main result. For part of these data: Words in brackets tell the shape of the fitted curve; partial curves, single points and poor fits give uncertain potencies. Where a SMILES comes first, the peptide text is derived from it. The star is where a group is joined. Cbz = O=C(OCc1ccccc1)*

By AC50 is commonly meant the concentration at which the activity in the assay is half-maximal. In the case of `CC(C)C[C@@H](C=O)NC(=O)[C@H](CC(C)C)NC(=O)[C@H](CC(C)C)NC(=O)OCc1ccccc1` (Cbz-Leu-Leu-Leu-aldehyde), the AC50 in test [1] (measured here: worm number) is 36500 nM [rising, single point]; in test [2] (setting [6]) it was 977 nM [falling, full curve]; in test [2] (measured here: PEO4 viability), 1230 nM [falling, full curve]; in test [3] (setting [9]) it was 1480 nM [falling, full curve]; in test [3] (setting [11]) it was 935 nM [falling, full curve]. Besides, the results for the z-score in test [3] (setting [7]), in test [3] (setting [8]) and in test [3] (setting [10]) were -0.762, -3.71 and -1.64, respectively.

For the molecule `O=c1[nH]c(=O)n([C@H]2C[C@@H](O)[C@@H](CO)O2)cc1C=CBr`, in test [1] (measured here: worm number), the AC50 is 25800 nM [falling, single point]. Besides, the z-score in test [3] (setting [7]) is -0.0496; in test [3] (setting [8]), 0.701; in test [3] (setting [10]) it was 0.115.

In the case of `CN1CC[C@@H](c2c(O)cc(O)c3c(=O)cc(-c4ccccc4Cl)oc23)[C@@H](O)C1`, the half-maximal activity concentration (AC50) in test [1] (measured here: worm area) is 1290 nM [falling, full curve, poor fit]; in test [2] (setting [6]) it was 490 nM [falling, full curve]; in test [2] (measured here: PEO4 viability), 490 nM [falling, full curve]; in test [3] (setting [9]), 132 nM [falling, full curve]; in test [3] (setting [11]), 66.2 nM [falling, full curve].

Consider `O=C(Cc1cccc(OC(F)(F)F)c1)Nc1ccc(CCCCc2nnc(NC(=O)Cc3ccccn3)s2)nn1`, for which the AC50 in test [1] (measured here: worm number) was 2580 nM [falling, full curve, poor fit]; in test [2] (setting [6]), 436 nM [falling, full curve]; in test [2] (measured here: PEO4 viability), 219 nM [falling, full curve, poor fit].

Regarding `CC(C)S(=O)(=O)c1ccc2nccc(Nc3ccc4scnc4c3)c2c1`, the AC50 in test [2] (setting [6]) is 15500 nM [falling, partial curve, poor fit].

Regarding `O=C1c2cccc(O)c2C(=O)c2c(O)cccc21`, the max response in test [4] amounted to 126%. In addition, the concentration at half-maximal activity (AC50) in test [1] (measured here: worm area) is 5.2 nM [falling, full curve, poor fit].

On to `O=C(O)CSCC(=O)NC1CCSC1=O` (stereo unspecified), for which the half-maximal activity concentration (AC50) in test [2] (measured here: PEO4 viability) was 12300 nM [rising, partial curve, poor fit].

In the case of `C[C@@H](O)[C@H]1C(=O)N2C(C(=O)O)=C(S[C@@H]3CN[C@H](CNS(N)(=O)=O)C3)[C@H](C)[C@H]12`, the concentration at half-maximal activity (AC50) in test [2] (setting [6]) was 97.7 nM [rising, full curve].

`COc1cc(OC)c2c(=O)[nH]c(-c3cc(C)c(OCCO)c(C)c3)nc2c1`: in test [2] (measured here: PEO4 viability), the half-maximal activity concentration (AC50) was 9770 nM [falling, partial curve].

On to `CCN(CC)CCNc1ccc(CO)c2sc3ccccc3c(=O)c12`, for which the AC50 in test [5] (measured here: 460 nm blue channel) was 7940 nM [falling, partial curve]; in test [5] (measured here: 530 nm viability channel), 11200 nM [rising, full curve]; in test [1] (measured here: worm area), 1830 nM [falling, full curve, poor fit].

On to `CNC(=O)c1ccc(C)c(-n2c(C)cc(OCc3ccc(F)cc3F)c(Br)c2=O)c1`, for which, in test [2] (setting [6]), the AC50 was 2750 nM [falling, full curve, poor fit].

In the case of `C=CCc1ccc(O)c(-c2ccc(O)c(CC=C)c2)c1`, the half-maximal activity concentration (AC50) in test [1] (measured here: worm number) is 18300 nM [falling, partial curve, poor fit]; in test [3] (setting [9]) it was 33200 nM [falling, single point]; in test [3] (setting [11]), 33200 nM [falling, single point]. In addition, the z-score in test [3] (setting [7]) was -0.601; in test [3] (setting [8]), 0.262; in test [3] (setting [10]) it was 0.582.

As for `CCN(CCO)CCCC(C)Nc1ccnc2cc(Cl)ccc12` (stereo unspecified), the AC50 in test [1] (measured here: worm area) was 183 nM [falling, single point]; in test [3] (setting [11]), 23500 nM [falling, partial curve, poor fit]. Also, the values for the z-score in test [3] (setting [7]), in test [3] (setting [8]) and in test [3] (setting [10]) were -0.337, 0.615 and -0.0617, respectively.

`Cc1cc2c(cc1CC(=O)c1sccc1S(=O)(=O)Nc1onc(C)c1Cl)OCO2`: in test [2] (measured here: PEO4 viability), the AC50 was 7760 nM [falling, partial curve, poor fit].

Turning to `CC(C)=CC[C@@H](O)C1=CC(=O)c2c(O)ccc(O)c2C1=O`, the AC50 is 29000 nM [rising, single point] in test [1] (measured here: worm number); 935 nM [falling, full curve] in test [3] (setting [9]); 3720 nM [falling, full curve] in test [3] (setting [11]). The z-score in test [3] (setting [7]) is -0.252; in test [3] (setting [8]) it was -1.05; in test [3] (setting [10]), -0.431.

Consider `C[C@H]1[C@H](C)CC[C@]2(C(=O)O)CC[C@]3(C)C(=CC[C@@H]4[C@@]5(C)C[C@@H](O)[C@H](O)[C@@](C)(CO)[C@@H]5CC[C@]43C)[C@H]12`, for which the concentration at half-maximal activity (AC50) in test [2] (measured here: PEO4 viability) was 27500 nM [falling, single point].

Consider `Cn1ncc2cc(-c3cnc(N)c(Cl)c3N3CCC4(CCNC4=O)CC3)ccc21`, for which the AC50 in test [2] (setting [6]) is 24500 nM [falling, single point].

In the case of `O=C1[C@H](CC[C@H](O)c2ccc(F)cc2)[C@@H](c2ccc(O)cc2)N1c1ccc(F)cc1`, the AC50 in test [2] (measured here: PEO4 viability) was 15500 nM [falling, partial curve, poor fit].
